Results are given in words; binding and its absence hold for the method and conditions named. In cells and extracts the contact can be indirect. Some results given as binding are weak or reduced against the parent protein; the word gives no strength. Tags and fused reporters may be left off the sequences shown.
T1: GFP-SMC5 p.(His990Asp) (human) (UniProt Q8IY18)
T1 sequence: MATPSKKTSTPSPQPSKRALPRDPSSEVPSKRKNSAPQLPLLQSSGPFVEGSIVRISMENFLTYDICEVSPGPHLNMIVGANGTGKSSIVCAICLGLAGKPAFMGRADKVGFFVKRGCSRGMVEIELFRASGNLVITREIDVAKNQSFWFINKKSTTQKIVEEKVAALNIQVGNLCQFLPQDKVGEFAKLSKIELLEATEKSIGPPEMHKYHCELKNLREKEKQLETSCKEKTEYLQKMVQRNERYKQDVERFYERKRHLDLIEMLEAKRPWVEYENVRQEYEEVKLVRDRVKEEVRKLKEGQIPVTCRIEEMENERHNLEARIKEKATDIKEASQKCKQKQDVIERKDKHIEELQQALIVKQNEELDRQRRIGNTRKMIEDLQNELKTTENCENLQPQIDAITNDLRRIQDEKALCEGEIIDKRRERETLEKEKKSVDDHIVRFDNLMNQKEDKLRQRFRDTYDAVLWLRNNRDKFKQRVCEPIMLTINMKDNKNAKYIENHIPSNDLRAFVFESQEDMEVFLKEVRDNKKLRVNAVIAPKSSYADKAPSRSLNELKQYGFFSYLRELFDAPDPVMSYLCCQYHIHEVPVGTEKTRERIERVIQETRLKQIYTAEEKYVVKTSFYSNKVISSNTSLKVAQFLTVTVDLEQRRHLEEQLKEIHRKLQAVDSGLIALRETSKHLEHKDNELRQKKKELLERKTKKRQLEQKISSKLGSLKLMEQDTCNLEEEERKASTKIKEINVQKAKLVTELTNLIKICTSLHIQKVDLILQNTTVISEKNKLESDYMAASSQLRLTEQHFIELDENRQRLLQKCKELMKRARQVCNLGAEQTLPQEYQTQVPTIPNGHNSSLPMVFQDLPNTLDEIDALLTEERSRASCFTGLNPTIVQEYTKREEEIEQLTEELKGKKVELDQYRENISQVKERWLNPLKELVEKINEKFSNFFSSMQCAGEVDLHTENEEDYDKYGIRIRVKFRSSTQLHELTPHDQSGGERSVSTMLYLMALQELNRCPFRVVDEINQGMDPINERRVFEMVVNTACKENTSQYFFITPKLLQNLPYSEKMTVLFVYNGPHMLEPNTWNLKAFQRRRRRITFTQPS

T2: SLF2 (tagged, full length cDNA in pcDNA4/TO) (human) (UniProt Q8IX21)
T2 sequence: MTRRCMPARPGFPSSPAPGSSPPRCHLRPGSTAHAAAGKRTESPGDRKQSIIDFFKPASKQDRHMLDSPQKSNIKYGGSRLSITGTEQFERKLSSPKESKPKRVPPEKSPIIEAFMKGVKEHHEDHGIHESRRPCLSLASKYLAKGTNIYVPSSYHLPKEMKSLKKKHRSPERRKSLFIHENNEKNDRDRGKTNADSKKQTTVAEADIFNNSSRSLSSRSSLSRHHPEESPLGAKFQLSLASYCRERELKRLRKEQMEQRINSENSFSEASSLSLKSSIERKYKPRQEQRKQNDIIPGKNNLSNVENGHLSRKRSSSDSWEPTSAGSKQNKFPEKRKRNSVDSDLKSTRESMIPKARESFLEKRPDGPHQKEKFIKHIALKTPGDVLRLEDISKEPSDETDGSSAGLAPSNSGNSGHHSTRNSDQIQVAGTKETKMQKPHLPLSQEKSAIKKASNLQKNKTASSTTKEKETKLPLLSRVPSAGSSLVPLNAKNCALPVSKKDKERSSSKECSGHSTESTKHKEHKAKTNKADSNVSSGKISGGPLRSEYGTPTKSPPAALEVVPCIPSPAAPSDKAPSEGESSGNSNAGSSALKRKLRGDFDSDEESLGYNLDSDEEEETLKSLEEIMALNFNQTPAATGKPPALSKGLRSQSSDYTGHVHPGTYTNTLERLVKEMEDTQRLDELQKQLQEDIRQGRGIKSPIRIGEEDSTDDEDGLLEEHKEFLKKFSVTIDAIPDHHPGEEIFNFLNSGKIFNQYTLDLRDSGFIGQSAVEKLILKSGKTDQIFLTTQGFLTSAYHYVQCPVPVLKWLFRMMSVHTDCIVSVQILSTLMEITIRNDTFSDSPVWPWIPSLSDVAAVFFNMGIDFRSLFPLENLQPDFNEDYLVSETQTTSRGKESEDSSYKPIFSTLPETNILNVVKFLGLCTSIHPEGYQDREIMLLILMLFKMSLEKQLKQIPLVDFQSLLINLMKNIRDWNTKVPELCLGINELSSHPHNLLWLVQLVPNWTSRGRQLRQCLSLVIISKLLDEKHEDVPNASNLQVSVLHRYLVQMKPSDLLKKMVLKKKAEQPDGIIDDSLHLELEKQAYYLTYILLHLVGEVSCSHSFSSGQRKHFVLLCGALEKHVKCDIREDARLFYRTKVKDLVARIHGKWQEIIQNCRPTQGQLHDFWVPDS


Tests used:
[1] = molecular target: GFP-SMC5 WT (human) (UniProt Q8IY18); test: co-IP; U-2 OS cells expressing Flag-SLF2 transfected with WT or mutant GFP-SMC5; GFP-SMC5 precipitated from cell extracts with GFP-Trap beads; immunoblot
[2] = molecular target: T1, GFP-SMC5 p.(His990Asp) (human); test: as above
[3] = molecular target: T2, SLF2 (tagged, full length cDNA in pcDNA4/TO) (human); test: co-IP; tagged proteins in U-2 OS lysates (EBC buffer: 150 mM NaCl, 50 mM Tris pH 7.5, 1 mM EDTA, 0.5% IGEPAL CA-630), precipitated with Strep-Tactin Sepharose, immunoblot; full length SLF2, deletion and minimal binding region constructs

Row | binding [1] | binding [2] | binding [3] | Binder
1 | binds | binds | – | Flag-SLF2 (protein, UniProt Q8IX21 1-1173) MTRRCMPARPGFPSSPAPGSSPPRCHLRPGSTAHAAAGKRTESPGDRKQSIIDFFKPASKQDRHMLDSPQKSNIKYGGSRLSITGTEQFERKLSSPKESKPKRVPPEKSPIIEAFMKGVKEHHEDHGIHESRRPCLSLASKYLAKGTNIYVPSSYHLPKEMKSLKKKHRSPERRKSLFIHENNEKNDRDRGKTNADSKKQTTVAEADIFNNSSRSLSSRSSLSRHHPEESPLGAKFQLSLASYCRERELKRLRKEQMEQRINSENSFSEASSLSLKSSIERKYKPRQEQRKQNDIIPGKNNLSNVENGHLSRKRSSSDSWEPTSAGSKQNKFPEKRKRNSVDSDLKSTRESMIPKARESFLEKRPDGPHQKEKFIKHIALKTPGDVLRLEDISKEPSDETDGSSAGLAPSNSGNSGHHSTRNSDQIQVAGTKETKMQKPHLPLSQEKSAIKKASNLQKNKTASSTTKEKETKLPLLSRVPSAGSSLVPLNAKNCALPVSKKDKERSSSKECSGHSTESTKHKEHKAKTNKADSNVSSGKISGGPLRSEYGTPTKSPPAALEVVPCIPSPAAPSDKAPSEGESSGNSNAGSSALKRKLRGDFDSDEESLGYNLDSDEEEETLKSLEEIMALNFNQTPAATGKPPALSKGLRSQSSDYTGHVHPGTYTNTLERLVKEMEDTQRLDELQKQLQEDIRQGRGIKSPIRIGEEDSTDDEDGLLEEHKEFLKKFSVTIDAIPDHHPGEEIFNFLNSGKIFNQYTLDLRDSGFIGQSAVEKLILKSGKTDQIFLTTQGFLTSAYHYVQCPVPVLKWLFRMMSVHTDCIVSVQILSTLMEITIRNDTFSDSPVWPWIPSLSDVAAVFFNMGIDFRSLFPLENLQPDFNEDYLVSETQTTSRGKESEDSSYKPIFSTLPETNILNVVKFLGLCTSIHPEGYQDREIMLLILMLFKMSLEKQLKQIPLVDFQSLLINLMKNIRDWNTKVPELCLGINELSSHPHNLLWLVQLVPNWTSRGRQLRQCLSLVIISKLLDEKHEDVPNASNLQVSVLHRYLVQMKPSDLLKKMVLKKKAEQPDGIIDDSLHLELEKQAYYLTYILLHLVGEVSCSHSFSSGQRKHFVLLCGALEKHVKCDIREDARLFYRTKVKDLVARIHGKWQEIIQNCRPTQGQLHDFWVPDS
2 | binds | binds | – | NSMCE2 (endogenous, U-2 OS) (protein, UniProt Q96MF7 1-247) MPGRSSSNSGSTGFISFSGVESALSSLKNFQACINSGMDTASSVALDLVESQTEVSSEYSMDKAMVEFATLDRQLNHYVKAVQSTINHVKEERPEKIPDLKLLVEKKFLALQSKNSDADFQNNEKFVQFKQQLKELKKQCGLQADREADGTEGVDEDIIVTQSQTNFTCPITKEEMKKPVKNKVCGHTYEEDAIVRMIESRQKRKKKAYCPQIGCSHTDIRKSDLIQDEALRRAIENHNKKRHRHSE
3 | – | – | binds | SLF1 (tagged) (protein, UniProt Q9BQI6 1-1058) MEDGTPKHIIQMTGFKMEEKEALVKLLLKLDCTFIKSEKYKNCTHLIAERLCKSEKFLAACAAGKWILTKDYIIHSAKSGRWLDETTYEWGYKIEKDSRYSPQMQSAPKRWREELKRTGAPGAFHRWKVVLLVRTDKRSDSLIRVLEAGKANVILPKSSPSGITHVIASNARIKAEKEKDNFKAPFYPIQYLGDFLLEKEIQNDEDSQTNSVWTEHSNEETNKDFRKDAGFLEMKGALRETMYRTQKEMQNHEDVNVGSILIQHHKKEKFSGSSKDLKFVKMRNTFGSHTYENQKEIKKKDEDIQRSYTLRRKRKKGKESNCKKGVEHEKIKSTLRRHIYNRDQKEMKNSIFAEYAKESKAMAIKTDVDVVEIKNTLRKHIYRAQAVRYNCIRIDKQPVYNVEVKNAEFPRGVLNLIESLIEGHFFKEAIEELSTLQAHYIPPVCVLHALLENVLQDNIDTFSGRYFHILSALLHLHPPWKSPAMSRYYLELFQCPTCMKGAWSLVEVLIRSCLFNESFCHQISENIGSKVLHLTLLKFFFNLIESEVQHLSQKLYDWSDSQNLKITGKAMLLEIFWSGSETSGLLTKPVNMLLEWTIYSHKEKFKSNDVFKHELAYLLAGILGAAIDYWIFLGLKMGRNVMRHMSDDLGSYVSLSCDDFSSQELEIFICSFSSSWLQMFVAEAVFKKLCLQSSGSVSSEPLSLQKMVYSYLPALGKTGVLGSGKIQVSKKIGQRPCFDSQRTLLMLNGTKQKQVEGLPELLDLNLAKCSSSLKKLKKKSEGELSCSKENCPSVVKKMNFHKTNLKGETALHRACINNQVEKLILLLSLPGIDINVKDNAGWTPLHEACNYGNTVCVQEILQRCPEVDLLTQVDGVTPLHDALSNGHVEIGKLLLQHGGPVLLQQRNAKGELPLDYVVSPQIKEELFAITKIEDTVENFHAQAEKHFHYQQLEFGSFLLSRMLLNFCSIFDLSSEFILASKGLTHLNELLMACKSHKETTSVHTDWLLDLYAGNIKTLQKLPHILKELPENLKVCPGVHTEALMITLEMMCRSVMEFS
4 | – | – | binds | SMC6 (in U-2 OS lysate, SLF2 mapping experiment) (protein, UniProt Q96SB8 1-1091) MAKRKEENFSSPKNAKRPRQEELEDFDKDGDEDECKGTTLTAAEVGIIESIHLKNFMCHSMLGPFKFGSNVNFVVGNNGSGKSAVLTALIVGLGGRAVATNRGSSLKGFVKDGQNSADISITLRNRGDDAFKASVYGNSILIQQHISIDGSRSYKLKSATGSVVSTRKEELIAILDHFNIQVDNPVSVLTQEMSKQFLQSKNEGDKYKFFMKATQLEQMKEDYSYIMETKERTKEQIHQGEERLTELKRQCVEKEERFQSIAGLSTMKTNLESLKHEMAWAVVNEIEKQLNAIRDNIKIGEDRAARLDRKMEEQQVRLNEAEQKYKDIQDKLEKISEETNARAPECMALKADVVAKKRAYNEAEVLYNRSLNEYKALKKDDEQLCKRIEELKKSTDQSLEPERLERQKKISWLKERVKAFQNQENSVNQEIEQFQQAIEKDKEEHGKIKREELDVKHALSYNQRQLKELKDSKTDRLKRFGPNVPALLEAIDDAYRQGHFTYKPVGPLGACIHLRDPELALAIESCLKGLLQAYCCHNHADERVLQALMKRFYLPGTSRPPIIVSEFRNEIYDVRHRAAYHPDFPTVLTALEIDNAVVANSLIDMRGIETVLLIKNNSVARAVMQSQKPPKNCREAFTADGDQVFAGRYYSSENTRPKFLSRDVDSEISDLENEVENKTAQILNLQQHLSALEKDIKHNEELLKRCQLHYKELKMKIRKNISEIRELENIEEHQSVDIATLEDEAQENKSKMKMVEEHMEQQKENMEHLKSLKIEAENKYDAIKFKINQLSELADPLKDELNLADSEVDNQKRGKRHYEEKQKEHLDTLNKKKRELDMKEKELEEKMSQARQICPERIEVEKSASILDKEINRLRQKIQAEHASHGDREEIMRQYQEARETYLDLDSKVRTLKKFIKLLGEIMEHRFKTYQQFRRCLTLRCKLYFDNLLSQRAYCGKMNFDHKNETLSISVQPGEGNKAAFNDMRALSGGERSFSTVCFILSLWSIAESPFRCLDEFDVYMDMVNRRIAMDLILKMADSQRFRQFILLTPQSMSSLPSSKLIRILRMSDPERGQTTLPFRPVTQEEDDDQR
